Measurements published in the supplement of paper PMC10849652.
The other results are listed elsewhere or left out.

Chains of the proteins cited; added tags and fusions are not shown. Lines headed by an entry give the natural chain unless they say otherwise; changes in a name come on top.
UniProt Q8TA86: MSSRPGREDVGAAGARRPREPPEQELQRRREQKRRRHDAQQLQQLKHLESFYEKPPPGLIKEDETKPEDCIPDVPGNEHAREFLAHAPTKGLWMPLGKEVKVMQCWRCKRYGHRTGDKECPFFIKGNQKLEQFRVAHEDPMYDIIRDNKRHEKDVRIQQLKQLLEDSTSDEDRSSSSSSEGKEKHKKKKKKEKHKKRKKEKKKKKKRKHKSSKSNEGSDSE
UniProt P23921: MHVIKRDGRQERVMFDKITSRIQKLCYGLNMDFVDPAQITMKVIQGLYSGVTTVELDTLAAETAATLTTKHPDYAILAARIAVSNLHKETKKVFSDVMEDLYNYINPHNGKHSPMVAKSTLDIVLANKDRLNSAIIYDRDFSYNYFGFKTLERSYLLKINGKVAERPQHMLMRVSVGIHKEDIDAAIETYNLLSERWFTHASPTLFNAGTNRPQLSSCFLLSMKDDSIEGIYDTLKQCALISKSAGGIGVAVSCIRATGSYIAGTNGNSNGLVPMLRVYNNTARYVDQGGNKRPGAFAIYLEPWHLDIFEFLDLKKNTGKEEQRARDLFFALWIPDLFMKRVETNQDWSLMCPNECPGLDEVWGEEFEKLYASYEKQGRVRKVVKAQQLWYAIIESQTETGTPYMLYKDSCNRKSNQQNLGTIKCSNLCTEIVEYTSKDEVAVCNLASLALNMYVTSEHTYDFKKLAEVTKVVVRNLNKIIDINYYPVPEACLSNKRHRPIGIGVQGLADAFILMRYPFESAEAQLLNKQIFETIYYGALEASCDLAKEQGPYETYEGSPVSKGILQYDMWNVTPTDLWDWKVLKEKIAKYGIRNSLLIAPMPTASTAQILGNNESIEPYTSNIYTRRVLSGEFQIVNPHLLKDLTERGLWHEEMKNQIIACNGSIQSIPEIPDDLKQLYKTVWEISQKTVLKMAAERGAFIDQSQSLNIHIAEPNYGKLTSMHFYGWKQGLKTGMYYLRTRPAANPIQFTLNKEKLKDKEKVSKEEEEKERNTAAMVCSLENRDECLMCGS
UniProt P60602: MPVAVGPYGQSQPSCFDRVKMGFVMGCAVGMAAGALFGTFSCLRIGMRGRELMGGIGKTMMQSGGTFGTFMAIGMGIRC
UniProt P15927: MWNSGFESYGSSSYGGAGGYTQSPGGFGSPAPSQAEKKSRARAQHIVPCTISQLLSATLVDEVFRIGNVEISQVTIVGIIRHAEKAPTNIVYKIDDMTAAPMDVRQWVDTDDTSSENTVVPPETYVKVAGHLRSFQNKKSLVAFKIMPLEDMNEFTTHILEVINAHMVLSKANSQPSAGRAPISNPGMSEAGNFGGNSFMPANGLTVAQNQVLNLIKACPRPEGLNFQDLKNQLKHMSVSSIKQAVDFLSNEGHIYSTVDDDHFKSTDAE
UniProt Q9P2E9: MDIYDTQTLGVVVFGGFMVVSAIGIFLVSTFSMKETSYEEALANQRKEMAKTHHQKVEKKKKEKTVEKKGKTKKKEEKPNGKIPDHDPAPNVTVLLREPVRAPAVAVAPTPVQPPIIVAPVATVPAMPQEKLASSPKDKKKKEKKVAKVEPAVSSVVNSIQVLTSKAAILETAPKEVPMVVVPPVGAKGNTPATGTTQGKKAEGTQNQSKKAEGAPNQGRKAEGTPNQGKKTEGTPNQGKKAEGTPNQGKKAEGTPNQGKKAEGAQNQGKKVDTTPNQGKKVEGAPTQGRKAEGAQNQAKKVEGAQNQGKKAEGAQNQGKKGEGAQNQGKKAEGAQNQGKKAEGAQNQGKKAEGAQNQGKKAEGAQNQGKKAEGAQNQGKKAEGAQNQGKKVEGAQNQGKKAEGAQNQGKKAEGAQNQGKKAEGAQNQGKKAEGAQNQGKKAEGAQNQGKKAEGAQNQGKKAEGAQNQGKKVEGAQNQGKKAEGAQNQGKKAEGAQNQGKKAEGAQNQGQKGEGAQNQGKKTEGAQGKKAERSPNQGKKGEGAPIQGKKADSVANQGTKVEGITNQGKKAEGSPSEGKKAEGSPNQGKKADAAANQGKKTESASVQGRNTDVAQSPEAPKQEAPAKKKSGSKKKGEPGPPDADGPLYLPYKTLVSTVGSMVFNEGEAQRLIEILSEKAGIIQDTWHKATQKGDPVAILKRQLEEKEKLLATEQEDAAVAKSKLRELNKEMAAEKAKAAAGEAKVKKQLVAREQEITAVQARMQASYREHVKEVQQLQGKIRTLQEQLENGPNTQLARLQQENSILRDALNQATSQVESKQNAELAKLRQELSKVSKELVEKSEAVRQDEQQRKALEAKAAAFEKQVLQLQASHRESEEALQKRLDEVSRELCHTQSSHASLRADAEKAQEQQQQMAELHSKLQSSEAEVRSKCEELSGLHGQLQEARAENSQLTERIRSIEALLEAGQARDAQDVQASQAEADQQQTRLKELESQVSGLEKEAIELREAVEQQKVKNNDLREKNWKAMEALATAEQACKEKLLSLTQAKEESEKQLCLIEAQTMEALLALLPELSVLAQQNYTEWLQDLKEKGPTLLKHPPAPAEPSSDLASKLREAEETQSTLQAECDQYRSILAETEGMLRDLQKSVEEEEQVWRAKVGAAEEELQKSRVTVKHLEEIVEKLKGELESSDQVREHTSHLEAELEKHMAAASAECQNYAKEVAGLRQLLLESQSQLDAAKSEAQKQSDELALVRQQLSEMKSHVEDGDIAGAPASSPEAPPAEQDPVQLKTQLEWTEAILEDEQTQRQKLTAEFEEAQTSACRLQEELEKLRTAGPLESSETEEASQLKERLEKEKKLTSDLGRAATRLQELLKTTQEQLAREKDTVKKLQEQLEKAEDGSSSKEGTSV
UniProt O75695: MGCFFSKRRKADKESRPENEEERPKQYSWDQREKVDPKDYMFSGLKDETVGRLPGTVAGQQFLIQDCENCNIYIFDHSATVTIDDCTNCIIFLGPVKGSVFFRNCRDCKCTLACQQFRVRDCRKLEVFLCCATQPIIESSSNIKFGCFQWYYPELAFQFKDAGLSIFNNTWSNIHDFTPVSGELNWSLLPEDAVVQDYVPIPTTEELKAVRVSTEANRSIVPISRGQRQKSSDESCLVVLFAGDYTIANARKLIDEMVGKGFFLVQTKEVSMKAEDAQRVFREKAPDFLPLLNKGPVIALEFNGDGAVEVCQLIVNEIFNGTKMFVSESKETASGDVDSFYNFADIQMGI
UniProt P04843: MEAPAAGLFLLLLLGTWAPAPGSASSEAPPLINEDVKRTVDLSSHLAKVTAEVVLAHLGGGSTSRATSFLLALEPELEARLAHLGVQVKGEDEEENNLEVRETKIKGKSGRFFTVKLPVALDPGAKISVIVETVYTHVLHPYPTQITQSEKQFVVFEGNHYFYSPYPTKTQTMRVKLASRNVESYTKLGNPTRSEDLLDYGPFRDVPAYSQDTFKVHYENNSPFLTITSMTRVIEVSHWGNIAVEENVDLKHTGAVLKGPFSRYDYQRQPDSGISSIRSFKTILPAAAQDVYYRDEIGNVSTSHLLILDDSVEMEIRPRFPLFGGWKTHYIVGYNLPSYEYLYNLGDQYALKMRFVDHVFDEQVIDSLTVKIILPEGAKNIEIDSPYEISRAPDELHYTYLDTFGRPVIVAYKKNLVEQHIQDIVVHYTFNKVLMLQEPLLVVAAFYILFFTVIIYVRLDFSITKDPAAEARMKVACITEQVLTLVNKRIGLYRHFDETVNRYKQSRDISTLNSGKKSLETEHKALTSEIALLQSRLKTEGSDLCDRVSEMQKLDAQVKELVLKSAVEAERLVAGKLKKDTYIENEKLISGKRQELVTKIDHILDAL
UniProt Q9H633: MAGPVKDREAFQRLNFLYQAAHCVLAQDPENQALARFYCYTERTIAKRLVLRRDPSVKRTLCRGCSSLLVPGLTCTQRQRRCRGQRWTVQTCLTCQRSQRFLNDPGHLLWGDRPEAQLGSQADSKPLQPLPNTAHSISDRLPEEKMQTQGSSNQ
UniProt Q9BUL9: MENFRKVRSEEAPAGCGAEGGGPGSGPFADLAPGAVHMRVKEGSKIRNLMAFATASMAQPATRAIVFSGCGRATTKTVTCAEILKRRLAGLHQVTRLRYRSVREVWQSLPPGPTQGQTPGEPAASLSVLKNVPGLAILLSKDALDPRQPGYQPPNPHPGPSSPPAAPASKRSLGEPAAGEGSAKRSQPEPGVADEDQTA
UniProt P31350, whole entry, looked up: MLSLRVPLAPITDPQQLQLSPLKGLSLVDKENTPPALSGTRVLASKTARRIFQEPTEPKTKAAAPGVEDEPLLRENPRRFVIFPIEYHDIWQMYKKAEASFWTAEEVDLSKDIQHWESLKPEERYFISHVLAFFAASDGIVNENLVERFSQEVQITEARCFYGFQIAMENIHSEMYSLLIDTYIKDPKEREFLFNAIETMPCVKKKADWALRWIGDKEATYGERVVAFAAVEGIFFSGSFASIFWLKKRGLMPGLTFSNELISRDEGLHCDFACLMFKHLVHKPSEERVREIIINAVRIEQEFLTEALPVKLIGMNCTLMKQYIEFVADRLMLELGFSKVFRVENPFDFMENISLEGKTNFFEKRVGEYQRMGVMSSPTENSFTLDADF
UniProt Q96BH1: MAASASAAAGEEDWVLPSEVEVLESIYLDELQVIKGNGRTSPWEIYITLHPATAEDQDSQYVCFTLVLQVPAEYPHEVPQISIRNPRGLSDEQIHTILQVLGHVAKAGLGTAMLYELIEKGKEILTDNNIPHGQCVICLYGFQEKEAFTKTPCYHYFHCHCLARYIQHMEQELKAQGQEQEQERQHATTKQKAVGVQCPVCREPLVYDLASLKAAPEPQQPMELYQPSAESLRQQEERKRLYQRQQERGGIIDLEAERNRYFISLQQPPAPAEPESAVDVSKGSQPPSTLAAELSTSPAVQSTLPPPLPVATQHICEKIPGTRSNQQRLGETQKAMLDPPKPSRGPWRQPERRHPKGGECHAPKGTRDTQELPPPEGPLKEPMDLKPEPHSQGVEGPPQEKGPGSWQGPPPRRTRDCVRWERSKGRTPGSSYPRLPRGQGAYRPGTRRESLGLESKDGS
UniProt P78345: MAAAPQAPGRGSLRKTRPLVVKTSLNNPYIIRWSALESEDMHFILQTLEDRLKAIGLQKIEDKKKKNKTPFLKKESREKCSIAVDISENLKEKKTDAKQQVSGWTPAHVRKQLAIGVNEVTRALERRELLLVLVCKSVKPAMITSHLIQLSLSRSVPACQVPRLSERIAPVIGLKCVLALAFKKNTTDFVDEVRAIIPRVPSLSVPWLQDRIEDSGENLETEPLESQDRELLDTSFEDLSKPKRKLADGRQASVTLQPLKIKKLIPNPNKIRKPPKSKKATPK
UniProt O95059: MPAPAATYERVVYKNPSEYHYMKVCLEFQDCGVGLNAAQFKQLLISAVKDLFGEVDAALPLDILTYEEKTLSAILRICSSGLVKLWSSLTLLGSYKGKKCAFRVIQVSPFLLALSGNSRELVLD
UniProt Q15418, whole entry, looked up: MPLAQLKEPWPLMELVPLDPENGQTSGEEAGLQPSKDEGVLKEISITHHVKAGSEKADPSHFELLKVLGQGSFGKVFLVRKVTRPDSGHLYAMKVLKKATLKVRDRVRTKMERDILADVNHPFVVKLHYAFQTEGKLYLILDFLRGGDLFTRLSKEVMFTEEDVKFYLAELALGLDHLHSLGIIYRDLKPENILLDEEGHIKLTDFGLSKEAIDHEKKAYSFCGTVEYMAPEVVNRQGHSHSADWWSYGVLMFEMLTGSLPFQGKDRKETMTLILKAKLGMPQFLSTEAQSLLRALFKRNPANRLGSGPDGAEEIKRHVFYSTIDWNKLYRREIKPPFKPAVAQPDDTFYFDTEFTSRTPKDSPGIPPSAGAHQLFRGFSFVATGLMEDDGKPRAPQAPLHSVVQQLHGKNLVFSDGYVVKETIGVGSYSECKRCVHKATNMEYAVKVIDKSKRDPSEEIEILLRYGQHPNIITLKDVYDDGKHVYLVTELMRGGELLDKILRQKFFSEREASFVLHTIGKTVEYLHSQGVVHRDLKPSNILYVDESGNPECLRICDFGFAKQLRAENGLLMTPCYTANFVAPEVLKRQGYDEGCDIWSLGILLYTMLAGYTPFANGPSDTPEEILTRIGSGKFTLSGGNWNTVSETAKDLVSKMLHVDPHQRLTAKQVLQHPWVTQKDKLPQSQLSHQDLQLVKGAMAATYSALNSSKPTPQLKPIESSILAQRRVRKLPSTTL
UniProt Q9H7B2: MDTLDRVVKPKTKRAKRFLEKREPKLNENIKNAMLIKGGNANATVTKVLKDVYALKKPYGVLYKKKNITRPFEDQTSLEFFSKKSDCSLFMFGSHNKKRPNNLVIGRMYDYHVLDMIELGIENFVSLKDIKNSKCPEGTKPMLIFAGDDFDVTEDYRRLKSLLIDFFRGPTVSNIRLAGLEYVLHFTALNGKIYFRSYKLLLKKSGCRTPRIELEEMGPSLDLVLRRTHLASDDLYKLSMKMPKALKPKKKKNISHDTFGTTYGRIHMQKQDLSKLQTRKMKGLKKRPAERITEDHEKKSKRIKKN

What was measured:
Assay in all cases: log2 fold change, soluble protein after heating vs DMSO (PISA); higher = thermal stabilisation; K562 cells, 10 uM, 30 min; active = over 0.2 and 3.5 SD of the protein, either way, in both replicates (recomputed)
bafetinib = compound: Cc1ccc(NC(=O)c2ccc(CN3CC[C@H](N(C)C)C3)c(C(F)(F)F)c2)cc1Nc1nccc(-c2cncnc2)n1 [bafetinib]
In short: (§1)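 Thermal stability values are relative to control samples and come from duplicates. They are expressed as log2 fold changes. For measurement, K562 cells (2×10^6 cells/mL) received 10 μM compound for 30 min, and aliquots were heated for 3 min over 48°C-58°C, pooled, and extracted at 4°C in PBS with 0.5% NP-40. Soluble protein, the supernatant after 21,000xg for 90 min, was quantified by TMTpro 16plex LC-MS/MS with equalised channel sums.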

[1] = compound: Cc1cccc(CC(=O)N2CCc3c2ccc(-c2cn(C)c4ncnc(N)c24)c3F)n1
In short: as §1

nilotinib = compound: Cc1cn(-c2cc(NC(=O)c3ccc(C)c(Nc4nccc(-c5cccnc5)n4)c3)cc(C(F)(F)F)c2)cn1 [nilotinib]
In short: as §1

[2] = compound: Cc1nc(Nc2n[nH]c3c2CN(C(=O)N[C@H](CN(C)C)c2ccccc2)C3(C)C)c2sccc2n1
In short: as §1

dasatinib = compound: Cc1nc(Nc2ncc(C(=O)Nc3c(C)cccc3Cl)s2)cc(N2CCN(CCO)CC2)n1 [dasatinib]
In short: as §1

[3] = compound: Cc1ncc(-c2ccnc(Nc3ccc(S(C)(=O)=O)cc3)n2)n1C(C)C
In short: as §1

[4] = compound: Cn1cc(-c2ccc3c(c2)CCN3C(=O)Cc2cccc(C(F)(F)F)c2)c2c(N)ncnc21
In short: as §1

[5] = compound: Cn1cc(-c2ccc3nnc(C(F)(F)c4ccc5ncccc5c4)n3n2)cn1
In short: as §1

tipifarnib = compound: Cn1cncc1[C@@](N)(c1ccc(Cl)cc1)c1ccc2c(c1)c(-c1cccc(Cl)c1)cc(=O)n2C [tipifarnib]
In short: as §1

mubritinib = compound: FC(F)(F)c1ccc(/C=C/c2nc(COc3ccc(CCCCn4ccnn4)cc3)co2)cc1 [mubritinib]
In short: as §1

Measured: log2 fold change

RPL26L1 (UniProt Q9UNX3)
inactive: bafetinib 0.379 | [1] -0.019 | nilotinib 0.046 | [2] 0.231 | dasatinib 0.18 | [3] -0.026 | [4] -0.19 | [5] -0.125 | tipifarnib 0.162 | mubritinib -0.21

RP9 (UniProt Q8TA86)
inactive: bafetinib 0.215 | [1] 0.074 | nilotinib -0.065 | [2] -0.012 | dasatinib 0 | [3] 0.01 | [4] -0.121 | [5] -0.147 | tipifarnib 0.097 | mubritinib -0.146

RPS5 (UniProt P46782)
inactive: bafetinib 0.2 | [1] 0.002 | nilotinib 0.046 | [2] 0.178 | dasatinib 0.069 | [3] -0.035 | [4] -0.122 | [5] -0.08 | tipifarnib 0.042 | mubritinib 0.007

RPL8 (UniProt P62917)
inactive: bafetinib 0.54 | [1] -0.001 | nilotinib -0.028 | [2] 0.242 | dasatinib 0.334 | [3] -0.046 | [4] -0.532 | [5] -0.232 | tipifarnib 0.382 | mubritinib -0.372

RPS19 (UniProt P39019)
inactive: bafetinib 0.242 | [1] -0.026 | nilotinib 0.046 | [2] 0.181 | dasatinib 0.083 | [3] -0.021 | [4] -0.11 | [5] -0.068 | tipifarnib 0.055 | mubritinib -0.037

RRM1 (UniProt P23921)
inactive: bafetinib -0.03 | [1] -0.013 | nilotinib 0.018 | [2] -0.009 | dasatinib -0.052 | [3] -0.002 | [4] 0.033 | [5] -0.007 | tipifarnib -0.064 | mubritinib 0

ROMO1 (UniProt P60602)
inactive: bafetinib 0.056 | [1] -0.022 | nilotinib -0.001 | [2] 0.027 | dasatinib -0.03 | [3] -0.039 | [4] 0.066 | [5] 0.063 | tipifarnib 0.062 | mubritinib 0.01

RPS11 (UniProt P62280)
inactive: bafetinib 0.386 | [1] 0 | nilotinib -0.003 | [2] 0.254 | dasatinib 0.142 | [3] -0.054 | [4] -0.348 | [5] -0.147 | tipifarnib 0.23 | mubritinib -0.185

RPL7A (UniProt P62424)
inactive: bafetinib 0.586 | [1] 0.008 | nilotinib 0.035 | [2] 0.213 | dasatinib 0.296 | [3] -0.026 | [4] -0.498 | [5] -0.235 | tipifarnib 0.413 | mubritinib -0.385

RPA2 isoform 3 (UniProt P15927)
inactive: bafetinib -0.038 | [1] -0.02 | nilotinib -0.032 | [2] -0.013 | dasatinib 0.015 | [3] 0.019 | [4] 0.034 | [5] 0.064 | tipifarnib -0.011 | mubritinib 0.028

RPRD1B (UniProt Q9NQG5)
inactive: bafetinib -0.036 | [1] 0.04 | nilotinib -0.036 | [2] -0.072 | dasatinib -0.099 | [3] -0.024 | [4] -0.021 | [5] -0.035 | tipifarnib -0.039 | mubritinib 0.032

RPL37 (UniProt P61927)
inactive: bafetinib 0.41 | [1] 0.047 | nilotinib 0.014 | [2] 0.185 | dasatinib 0.272 | [3] -0.03 | [4] -0.406 | [5] -0.209 | tipifarnib 0.151 | mubritinib -0.24

RRBP1 (UniProt Q9P2E9)
inactive: bafetinib 0.282 | [1] -0.054 | nilotinib -0.031 | [2] 0.015 | dasatinib 0.169 | [3] -0.014 | [4] -0.369 | [5] -0.208 | tipifarnib 0.236 | mubritinib -0.089

RP2 (UniProt O75695)
inactive: bafetinib 0.094 | [1] 0.1 | nilotinib 0.135 | [2] -0.12 | dasatinib 0.02 | [3] -0.143 | [4] 0.044 | [5] 0.009 | tipifarnib 0.028 | mubritinib 0.068

RPL31 (UniProt P62899)
inactive: bafetinib 0.342 | [1] 0.024 | nilotinib 0.001 | [2] 0.179 | dasatinib 0.14 | [3] -0.041 | [4] -0.231 | [5] -0.082 | tipifarnib 0.151 | mubritinib -0.095

RPN1 (UniProt P04843)
inactive: bafetinib -0.06 | [1] 0.009 | nilotinib -0.038 | [2] 0.007 | dasatinib -0.056 | [3] -0.03 | [4] -0.006 | [5] 0.026 | tipifarnib -0.009 | mubritinib 0.018

RPL26 (UniProt P61254)
inactive: bafetinib 0.442 | [1] 0.049 | nilotinib 0.108 | [2] 0.062 | dasatinib 0.177 | [3] -0.019 | [4] -0.294 | [5] -0.364 | tipifarnib 0.235 | mubritinib -0.258

RNPS1 (UniProt Q15287)
active: [2] -0.62
inactive: bafetinib -0.073 | [1] -0.032 | nilotinib -0.035 | dasatinib -0.007 | [3] -0.12 | [4] -0.037 | [5] 0.011 | tipifarnib -0.084 | mubritinib 0.003

RPS24 isoform 4 (UniProt P62847)
inactive: bafetinib 0.269 | [1] 0 | nilotinib 0.046 | [2] 0.191 | dasatinib 0.134 | [3] -0.02 | [4] -0.234 | [5] -0.055 | tipifarnib 0.127 | mubritinib -0.105

RPP21 isoform 4 (UniProt Q9H633)
inactive: bafetinib -0.036 | [1] 0.284 | nilotinib 0.013 | [2] -0.07 | dasatinib -0.022 | [3] -0.027 | [4] -0.043 | [5] -0.093 | tipifarnib -0.011 | mubritinib 0.007

RPP25 (UniProt Q9BUL9)
inactive: bafetinib 0.006 | [1] 0.098 | nilotinib 0.132 | [2] -0.096 | dasatinib -0.001 | [3] -0.06 | [4] 0 | [5] 0.006 | tipifarnib 0.016 | mubritinib 0.055

RPL21 (UniProt P46778)
inactive: bafetinib 0.396 | [1] -0.001 | nilotinib 0.032 | [2] 0.269 | dasatinib 0.308 | [3] -0.025 | [4] -0.612 | [5] -0.175 | tipifarnib 0.429 | mubritinib -0.346

RRM2 isoform 2 (UniProt P31350)
inactive: bafetinib 0.018 | [1] 0.003 | nilotinib 0.025 | [2] 0.003 | dasatinib -0.006 | [3] -0.049 | [4] 0.027 | [5] -0.001 | tipifarnib -0.036 | mubritinib 0.043

RNF25 (UniProt Q96BH1)
inactive: bafetinib -0.008 | [1] 0 | nilotinib -0.037 | [2] -0.023 | dasatinib -0.004 | [3] -0.006 | [4] 0.07 | [5] -0.004 | tipifarnib -0.035 | mubritinib 0.094

RPP38 (UniProt P78345)
inactive: bafetinib 0.042 | [1] -0.02 | nilotinib 0.013 | [2] -0.086 | dasatinib 0.012 | [3] -0.02 | [4] -0.026 | [5] -0.009 | tipifarnib 0.055 | mubritinib 0.021

RPS15A (UniProt P62244)
inactive: bafetinib 0.369 | [1] 0.011 | nilotinib 0.039 | [2] 0.25 | dasatinib 0.097 | [3] -0.058 | [4] -0.293 | [5] -0.103 | tipifarnib 0.051 | mubritinib -0.132

2 consecutive entries out of the list so far, quoted:
RP2 (UniProt O75695)
inactive: bafetinib 0.094 | [1] 0.1 | nilotinib 0.135 | [2] -0.12 | dasatinib 0.02 | [3] -0.143 | [4] 0.044 | [5] 0.009 | tipifarnib 0.028 | mubritinib 0.068

RPL31 (UniProt P62899)
inactive: bafetinib 0.342 | [1] 0.024 | nilotinib 0.001 | [2] 0.179 | dasatinib 0.14 | [3] -0.041 | [4] -0.231 | [5] -0.082 | tipifarnib 0.151 | mubritinib -0.095

Remaining list, next part:

RPP14 (UniProt O95059)
inactive: bafetinib 0.045 | [1] 0 | nilotinib -0.014 | [2] 0.019 | dasatinib 0.063 | [3] -0.013 | [4] -0.078 | [5] -0.054 | tipifarnib 0.003 | mubritinib -0.084

RPS6KA1 isoform 2 (UniProt Q15418)
active: [2] -0.569
inactive: bafetinib -0.051 | [1] 0.081 | nilotinib -0.002 | dasatinib -0.281 | [3] -0.044 | [4] -0.019 | [5] 0 | tipifarnib -0.056 | mubritinib 0.041

RPL37A (UniProt P61513)
inactive: bafetinib 0.481 | [1] -0.013 | nilotinib 0.084 | [2] 0.326 | dasatinib 0.283 | [3] -0.024 | [4] -0.592 | [5] -0.179 | tipifarnib 0.256 | mubritinib -0.368

RPF2 (UniProt Q9H7B2)
inactive: [1] -0.151
